Data reported in article PMC6792016.

How the values were obtained:
p53 WT (IVT) = experiment: EMSA; details: anti-p53 Pab421 in the binding mix; 20 mM HEPES pH 7.8, 0.5 mM EDTA, 6 mM MgCl2, 60 mM KCl, 0.008% NP-40, 1 mM DTT, 100 ng Pab421, 120 ng salmon sperm DNA, 1 ul glycerol in 20 ul; 30 min room temperature; protein translated in vitro; label: 32P
[1] = biological target: p53EE (R178E + p53EE/EE MEF nuclear extract) (Mus musculus (129Sv)) (UniProt P02340); experiment: EMSA; details: anti-p53 Pab421 in the binding mix; 20 mM HEPES pH 7.8, 0.5 mM EDTA, 6 mM MgCl2, 60 mM KCl, 0.008% NP-40, 1 mM DTT, 100 ng Pab421, 120 ng salmon sperm DNA, 1 ul glycerol in 20 ul; 30 min room temperature; protein in an extract; label: 32P
[2] = biological target: p53 WT (p53+/+ MEF nuclear extract) (Mus musculus (129Sv knock-in background)) (UniProt P02340); experiment: EMSA supershift; details: anti-p53 Pab421 in the binding mix, FL-393 supershift; 20 mM HEPES pH 7.8, 0.5 mM EDTA, 6 mM MgCl2, 60 mM KCl, 0.008% NP-40, 1 mM DTT, 100 ng Pab421, 120 ng salmon sperm DNA, 1 ul glycerol in 20 ul; 30 min room temperature; protein in an extract; label: 32P

Does “GGGTAGACATGCCTAGACATGCCTAAGCTCCC (double strand) [p53 RE (consensus-like)]” bind (p53 WT (IVT))?
Result: binds

Does “GGGTAGACATGCCTAGACATGCCTAAGCTCCC (double strand) [p53 RE (consensus-like)]” bind [1]?
Result: no binding

Does “GGGTAGACATGCCTAGACATGCCTAAGCTCCC (double strand) [p53 RE (consensus-like)]” bind [2]?
Result: binds

Construct, isoform or probe ends are uncertain for at least one entry. For part of these data: Where cells or extracts were used, other partners may take part. For part of these data: No signal at the amounts used counts as a negative. For part of these data: At least one verdict was read from the data and is not stated in words by the source.
